{"source": "paper PMC11676817", "about": "“Antiproliferative and Morphological Analysis Triggered by Drugs Contained in the Medicines for Malaria Venture COVID-Box Against Toxoplasma gondii Tachyzoites” (Microorganisms, 2024)", "key": {"[1]": {"system": "Toxoplasma gondii tachyzoites of the RH strain", "experiment": "microbe, parasite or virus in culture", "details": "168 h, read-out: IC50 against T. gondii proliferation"}, "[2]": {"system": "Toxoplasma gondii tachyzoites of the RH strain", "experiment": "microbe, parasite or virus in culture", "assay_type": "cell-based", "details": "24 h, read-out: Inhibition of parasite proliferation"}}, "data": [{"compound": "CO[C@@H]1[C@H](N(C)C(=O)c2ccccc2)C[C@H]2O[C@]1(C)n1c3ccccc3c3c4c(c5c6ccccc6n2c5c31)C(=O)NC4", "note": "[Midostaurin]", "values": [{"measurement": "IC50", "setting": "[1]", "result": "< 0.1", "unit": "µM"}, {"measurement": "inhibition at […]", "setting": "[2]", "result": "75 to 80", "unit": "%"}]}]}
